PubChem BioAssay AID504774 – Drosophila RNAi Screening Center | 2011
The screen tested about 23,000 reagents; shown is an unselected part of those that have a named target and a result. 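Values are quantile-normalised luminescence on an arbitrary scale; higher means more cells surviving MMS.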 A plus sign joins genes that one reagent is predicted to hit. Reagent sequences are not shown.

Assay: 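Knock-downs that shift viability of MMS-exposed cells relative to untreated ones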 (primary screen)
Cells: Drosophila Kc167 cells
Reagent: long dsRNA against Drosophila genes, about 0.25 µg dsRNA per well
Timing: about 6 days: 3 days knock-down, then 3 days with or without MMS
Conditions: methyl methanesulphonate 0.004% (w/v) for 3 days after knock-down
Measured: 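Viability in wells given MMS, read as ATP luminescence, normalised by quantiles plate by plate and averaged across replicates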
Direction: mean viability with MMS and viability with MMS: higher = more surviving cells after MMS

gene | amplicon | mean viability with MMS | viability with MMS, replicate 1 | viability with MMS, replicate 2
CG10903 | DRSC14281 | 3.41e6 | 3.90e6 | 3.85e6
stg | DRSC17071 | 3.17e6 | 3.75e6 | 3.71e6
Dhc16F | DRSC20242 | 3.61e6 | 4.09e6 | 4.09e6
CG2811 | DRSC04318 | 3.38e6 | 3.80e6 | 3.81e6
mib2 | DRSC02623 | 3.42e6 | 3.86e6 | 3.84e6
Pkn | DRSC06809 | 3.48e6 | 3.92e6 | 3.94e6
Pkn | DRSC06810 | 3.55e6 | 4.00e6 | 4.04e6
Spn88Ea | DRSC17061 | 3.62e6 | 4.05e6 | 4.19e6
Sos | DRSC03439 | 3.20e6 | 3.71e6 | 3.62e6
scb | DRSC05542 | 3.45e6 | 3.96e6 | 3.94e6
scb | DRSC07678 | 3.46e6 | 4.07e6 | 3.65e6
Trx2 | DRSC03622 | 3.45e6 | 3.76e6 | 4.04e6
Ir60a | DRSC04212 | 3.45e6 | 3.90e6 | 3.91e6
Ttc26 | DRSC15591 | 2.02e6 | 4.28e6 | 4.05e6
CG10444 | DRSC05990 | 3.55e6 | 4.03e6 | 4.01e6
Pal1 + Pdrg1 | DRSC06587 | 3.48e6 | 4.03e6 | 3.88e6
CG31220 | DRSC22248 | 3.47e6 | 3.95e6 | 3.94e6
CG9483 | DRSC03226 | 3.44e6 | 3.83e6 | 3.94e6
CG2076 | DRSC19832 | 3.71e6 | 4.25e6 | 4.10e6
CG7856 | DRSC04896 | 3.55e6 | 4.18e6 | 3.89e6
NijB | DRSC09850 | 2.13e6 | 4.24e6 | –
ZnT63C | DRSC08032 | 3.46e6 | 3.97e6 | 3.87e6
ZnT63C | DRSC08033 | 3.50e6 | 3.92e6 | 4.02e6
ZnT63C | DRSC08519 | 3.86e6 | 4.42e6 | 4.35e6
ZnT63C | DRSC21989 | 3.39e6 | 3.89e6 | 3.89e6
Btk | DRSC02008 | 3.53e6 | 4.00e6 | 4.03e6
Btk | DRSC02666 | 3.66e6 | 4.40e6 | 3.94e6
Btk | DRSC22427 | 3.68e6 | 4.13e6 | 4.11e6
CG4452 | DRSC10422 | 3.64e6 | 4.04e6 | 4.22e6
Gr21a | DRSC00366 | 3.57e6 | 4.04e6 | 4.07e6
Gfat1 | DRSC21219 | 3.45e6 | 4.01e6 | 3.84e6
CG10165 | DRSC02017 | 3.82e6 | 4.07e6 | 4.60e6
CG5196 | DRSC15735 | 3.57e6 | 4.00e6 | 4.09e6
ro | DRSC17046 | 3.54e6 | 4.03e6 | 3.99e6
CG14053 | DRSC17908 | 3.49e6 | 4.06e6 | 3.85e6
mrva | DRSC11009 | 3.58e6 | 4.02e6 | 4.10e6
mrva | DRSC21842 | 3.34e6 | 3.93e6 | 3.81e6
CG8997 | DRSC01900 | 3.52e6 | 4.04e6 | 3.95e6
Idgf6 | DRSC07360 | 3.51e6 | 3.99e6 | 3.94e6
Mt2 | DRSC03374 | 3.60e6 | 4.19e6 | 3.97e6
Mlc1 | DRSC16740 | 3.59e6 | 4.05e6 | 4.10e6
Twdlbeta | DRSC07310 | 3.57e6 | 4.08e6 | 4.07e6
CG17571 | DRSC01768 | 3.53e6 | 4.10e6 | 3.90e6
CG17571 | DRSC03755 | 3.61e6 | 4.09e6 | 4.11e6
CG12107 | DRSC06102 | 3.48e6 | 4.06e6 | 3.80e6
speck | DRSC04608 | 3.49e6 | 4.01e6 | 3.89e6
CG31161 | DRSC16144 | 3.50e6 | 4.08e6 | 3.83e6
tth | DRSC19435 | 3.41e6 | 3.63e6 | 4.20e6
for | DRSC00195 | 3.08e6 | 3.59e6 | 3.53e6
for | DRSC00818 | 3.44e6 | 3.91e6 | 3.80e6
Tengl3 | DRSC22288 | 3.63e6 | 4.11e6 | 4.07e6
Cyp4d20 | DRSC08654 | 3.57e6 | 4.10e6 | 3.98e6

The list goes on; the last 6 above are carried over.
gene | amplicon | mean viability with MMS | viability with MMS, replicate 1 | viability with MMS, replicate 2
CG31161 | DRSC16144 | 3.50e6 | 4.08e6 | 3.83e6
tth | DRSC19435 | 3.41e6 | 3.63e6 | 4.20e6
for | DRSC00195 | 3.08e6 | 3.59e6 | 3.53e6
for | DRSC00818 | 3.44e6 | 3.91e6 | 3.80e6
Tengl3 | DRSC22288 | 3.63e6 | 4.11e6 | 4.07e6
Cyp4d20 | DRSC08654 | 3.57e6 | 4.10e6 | 3.98e6
Spn53F | DRSC06022 | 3.57e6 | 4.01e6 | 4.10e6
cib | DRSC18660 | 3.63e6 | 4.19e6 | 4.04e6
CG10681 | DRSC09777 | 3.57e6 | 4.08e6 | 4.02e6
CG10681 | DRSC21484 | 3.74e6 | 4.16e6 | 4.26e6
Rbf2 | DRSC16816 | 3.57e6 | 4.01e6 | 4.10e6
CG13226 | DRSC06346 | 3.76e6 | 3.98e6 | 4.67e6
MED16 | DRSC04506 | 3.37e6 | 3.78e6 | 3.81e6
CG33303 | DRSC02848 | 3.89e6 | 3.87e6 | 4.96e6
bb8 | DRSC15578 | 3.53e6 | 3.99e6 | 4.01e6
DIP-eta | DRSC02342 | 3.54e6 | 3.95e6 | 4.06e6
CG10752 | DRSC09799 | 3.47e6 | 3.88e6 | 3.99e6
Nop60B | DRSC04627 | 3.39e6 | 3.67e6 | 3.72e6
Rgl | DRSC11267 | 3.40e6 | 3.83e6 | 3.83e6
CG13949 | DRSC00367 | 3.60e6 | 4.04e6 | 4.19e6
Ir67b | DRSC09876 | 3.52e6 | 4.27e6 | 3.71e6
CCHa1 | DRSC14821 | 3.21e6 | 3.57e6 | 3.71e6
grh | DRSC05680 | 3.58e6 | 3.93e6 | 4.17e6
grh | DRSC05683 | 3.22e6 | 3.69e6 | 3.69e6
grh | DRSC07624 | 3.69e6 | 4.21e6 | 4.16e6
grh | DRSC07625 | 3.62e6 | 4.26e6 | 3.94e6
Pde8 | DRSC04503 | 3.63e6 | 3.93e6 | 4.28e6
atlas | DRSC04183 | 3.43e6 | 3.67e6 | 4.08e6
CG40498 | DRSC07786 | 3.63e6 | 4.04e6 | 4.15e6
ThrRS | DRSC02843 | 3.53e6 | 4.09e6 | 3.92e6
CG8520 | DRSC07206 | 3.60e6 | 4.00e6 | 4.18e6
kdn | DRSC18328 | 3.87e6 | 4.41e6 | 4.49e6
CG3961 | DRSC10390 | 3.64e6 | 4.17e6 | 4.06e6
CG3961 | DRSC10391 | 3.27e6 | 3.66e6 | 3.70e6
CG15880 | DRSC00474 | 3.65e6 | 4.17e6 | 4.15e6
CG4393 | DRSC15573 | 3.46e6 | 3.95e6 | 3.86e6
Faa | DRSC08451 | 3.62e6 | 4.16e6 | 4.05e6
ClpP | DRSC02806 | 3.42e6 | 3.72e6 | 4.00e6
ATP8B | DRSC14961 | 3.50e6 | 4.02e6 | 3.95e6
mRpL2 | DRSC10896 | 3.55e6 | 3.99e6 | 4.06e6
PGAP1 | DRSC18286 | 3.53e6 | 4.32e6 | 3.37e6
